The values below come from PubChem BioAssay AID1347426 (Functional Genomics Laboratory (NCATS/FGL), 2020).

About 1,400 (4.5%) of roughly 31,000 sequences were called active.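 How the source made its calls: active means median seed-adjusted z-score above 1 or below -1; inactive means the rest.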 This is one part of the list.

The nature of this experiment: Novel Modifiers of Survival Motor Neuron (SMN) Protein: Gene Identification via Genome-wide siRNA Screen.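 Further: luminescence tracks full-length SMN protein made from the SMN2 reporter.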 Conditions: HEK293T SMN2-luciferase reporter, siRNA knockdown, 72 h; actives lie on both sides. In short, it runs like this: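 Luciferase signal, proportional to full-length SMN made from an SMN2 cDNA reporter in stable HEK293T cells, was read 72 h after siRNA reverse transfection. Values were expressed as MAD scores after non-targeting-control normalization and log10 conversion; seed analysis flagged off-targets.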
(In general: A reporter such as luciferase makes a cellular process visible.)
As for GAACCAUUUAUGUAUUUCUTT against MMD, the median seed-adjusted z-score is inactive: 0.193.

On to GUCUGGAAUAUACUCGAAATT against RIPK5, for which the median seed-adjusted z-score was inactive: -0.00523.

In the case of UGCCGGAAAUAAAACAUAATT against CA5A, the median seed-adjusted z-score is inactive: -0.0668.

With CCUUCCUCAUGAUCGCUGATT against GRM4, the median seed-adjusted z-score is inactive: -0.71.

For the sequence GCACUGUAGUGGUUGAUGUTT against PCDHB7, the median seed-adjusted z-score was inactive: 0.365.

With GAAUGACUCUAGCAAGCAATT against PTAR1, the median seed-adjusted z-score was inactive: -0.507.

With GGGAGACUCUACAACAUAUTT against KCNIP4, the median seed-adjusted z-score was inactive: -0.401.

Turning to GCCUAGAGGAUACCCAAAATT against NPVF, the median seed-adjusted z-score is inactive: 0.588.

Turning to CAUCUUUGCUAGUAAUCUATT against UBA7, the median seed-adjusted z-score is active: 2.41.

As to GUAUAUGCCUGGAACGGUATT against TRIM2, the median seed-adjusted z-score was inactive: -0.207.

Regarding CCUCGUUUGACAUCCACUATT against CTSD, the median seed-adjusted z-score is inactive: -0.282.

With UAGGCAACAUAUUCAUUAATT against PABPC1, the median seed-adjusted z-score is inactive: -0.126.

For the sequence CCAUUCCCACCAUAGGCUUTT against ARF1, the median seed-adjusted z-score was inactive: -0.371.

As for CCGCGAUCAUAGACCUAGATT against FOXO4, the median seed-adjusted z-score was inactive: -0.0576.

Turning to GAGUUGAACUGCUUGAUCATT against ZFX, the median seed-adjusted z-score is inactive: -0.581.

Turning to CCAGUACAGUGUGCAAGGATT against AOC2, the median seed-adjusted z-score was inactive: 0.

For the sequence GAGCGAUUUUAGUUUAUGATT against RAB21, the median seed-adjusted z-score was inactive: 0.544.

Regarding CAAACGGGCUGAGCUCAGATT against KCTD17, the median seed-adjusted z-score was inactive: 0.492.

Take GGAUAUACAUCCAACCUCATT against DHPS: the median seed-adjusted z-score was inactive: 0.0662.

Regarding GGGUAACCAUUGCUGAGCATT against DRP2, the median seed-adjusted z-score is inactive: -0.0555.

In the case of GGAAUUUCUACAUACAAUATT against COX11, the median seed-adjusted z-score is inactive: -0.317.

Regarding CCGCAAUUCAGAUAUAGAATT against NFATC3, the median seed-adjusted z-score is inactive: -0.517.

For GACCUAUCUGUAGACUACATT against ZNF167, the median seed-adjusted z-score was inactive: 0.409.

With UGAGAAUGCUGAUCCCAUATT against COQ9, the median seed-adjusted z-score was inactive: -0.787.

Take UGCCUCUACUUGUCCCUUUTT against LIF: the median seed-adjusted z-score is inactive: 0.273.

Regarding GGUCGGAUGUCUACAGCGATT against TYROBP, the median seed-adjusted z-score was inactive: 0.249.

For AAGUCACAUCGGAAAUUCATT against KIF2B, the median seed-adjusted z-score is inactive: 0.226.

As to CUGUCUCAUAUACAAAUUATT against DLGAP2, the median seed-adjusted z-score was inactive: 0.295.

For the sequence CGGACUUCAUCAUCCCUGUTT against CTDSP1, the median seed-adjusted z-score is inactive: 0.28.

For CUUUUGACGUGAACGAUGATT against ORM1, the median seed-adjusted z-score was inactive: 0.206.

Take GGACAUCAUUAAAGGAGAATT against PSAP: the median seed-adjusted z-score is inactive: 0.107.

With CAACUGGACUCUACUCAAATT against ZNF81, the median seed-adjusted z-score was inactive: 0.178.

Consider CGUCUGCUCGAAAACCCAUTT against ZDHHC4, for which the median seed-adjusted z-score was inactive: 0.181.

On to GCACCGUCUAUGUCACCAUTT against GAL3ST3, for which the median seed-adjusted z-score is inactive: -0.54.

Turning to GAAUGUCCCUGCUCCACAATT against SNAI1, the median seed-adjusted z-score was inactive: 0.0196.

Consider CCAUGUUUCUCAUUAGUGUTT against NTSR1, for which the median seed-adjusted z-score is active: -1.1.

As to CGAUCCUAUUCGAUGAGAATT against GRM5, the median seed-adjusted z-score was inactive: -0.227.

Consider CCGUGUAAGUUGCACCAAUTT against PMS2, for which the median seed-adjusted z-score was inactive: -0.162.

Take CUAUGUCAGUCGAAUAAUUTT against RFC4: the median seed-adjusted z-score was inactive: -0.386.

With CCAAUAAAAUUUAACUGAUTT against MYLPF, the median seed-adjusted z-score is inactive: 0.348.

On to CCAUUGUAGUCUCUCCUCUTT against RECQL5, for which the median seed-adjusted z-score is inactive: 0.

With AGGGCACAGAGAAUCCAUUTT against ASCL2, the median seed-adjusted z-score was inactive: -0.249.

Regarding GAGAGGUGAUGAUCCUUAUTT against GNPDA1, the median seed-adjusted z-score was inactive: 0.0252.

For the sequence GAGAAAACUUAGAACCCAATT against SCTR, the median seed-adjusted z-score is inactive: -0.352.

GACACCCGCUUUACCCUUATT against PTPRF: the median seed-adjusted z-score is inactive: 0.413.

Turning to CGUCUGCAACUUCUCCGAATT against CD14, the median seed-adjusted z-score was inactive: 0.0723.

GGCGAAAAAUUGCUACCGATT against PSMC2: the median seed-adjusted z-score was active: -1.96.

As for AAUAAAGUACUUUACCUAATT against GSTA1, the median seed-adjusted z-score is inactive: 0.27.

GCACAUCUGUAAAUCUACATT against BID: the median seed-adjusted z-score is inactive: 0.342.

GGAACAGUAUCUAUCACUATT against HGF: the median seed-adjusted z-score was inactive: -0.569.

Turning to GAAUGAGGAGGGAAUGGUATT against POLA2, the median seed-adjusted z-score is inactive: -0.114.

Consider CUAACAAGGUGGACCACCATT against F13A1, for which the median seed-adjusted z-score was inactive: -0.508.

As to GCACAACUUACGUAACAGATT against MSH6, the median seed-adjusted z-score is inactive: -0.182.

Consider AAAUCCAGGUGAACAUCCATT against CAPNS1, for which the median seed-adjusted z-score was inactive: 0.35.

Take GGAUAUUCACCUUGCGAAATT against SEL1L: the median seed-adjusted z-score was inactive: 0.438.

Consider GAACUUGAGGGACAGAGUUTT against RANBP3, for which the median seed-adjusted z-score was inactive: -0.211.

CAUCAGAUCUUGAUCAGUUTT against NKTR: the median seed-adjusted z-score is active: -1.1.

For the sequence CUUUGCUAGUGGAUUCAAATT against CDS1, the median seed-adjusted z-score is inactive: 0.0208.

For the sequence CCCUGAAAUCUUUAACUUATT against TPST1, the median seed-adjusted z-score was inactive: -0.00547.

In the case of GCUACCCACAGAUUCAGAATT against ALX1, the median seed-adjusted z-score is inactive: -0.556.

For the sequence GUAGCAGGGCUGAACCCAUTT against ZMAT5, the median seed-adjusted z-score was inactive: 0.292.

Consider GGAUCGCACUCAUGUGGAATT against A4GALT, for which the median seed-adjusted z-score is inactive: -0.286.

As to CGAGGAGCGAGUGCUGAAATT against CREB3L3, the median seed-adjusted z-score is inactive: -0.076.

With GGAAUGAAGCGUGUCCUGATT against KSR1, the median seed-adjusted z-score is inactive: 0.0873.

As to GAUCAUGCGUAACUACAGUTT against JUP, the median seed-adjusted z-score was inactive: 0.15.

On to GGAUAGAGGUUUCCAGUUUTT against CNBP, for which the median seed-adjusted z-score was active: -1.14.

CCAAAAUAGGGUCGAAUUATT against SQRDL: the median seed-adjusted z-score is inactive: 0.455.

Regarding GACCUUGAGUCAUGAUUCATT against ZNF582, the median seed-adjusted z-score was inactive: -0.421.

As for GAUCUUCGCUGUAACCCAATT against ITGB6, the median seed-adjusted z-score was inactive: -0.5.

As for CGGUGCCCGUGGAAAUGAUTT against SERPINF2, the median seed-adjusted z-score is inactive: 0.629.

As for GCCGGAAUCCUGAAACUCATT against NFATC1, the median seed-adjusted z-score is inactive: 0.00712.

With GGACUUCACCGAGAACCCATT against GFRA2, the median seed-adjusted z-score was inactive: 0.363.

On to CCCGGAUACUUCUGAAGAATT against HNRPDL, for which the median seed-adjusted z-score was inactive: -0.68.

As for CCAAGACUAUGUAUCGAUUTT against RG9MTD3, the median seed-adjusted z-score is inactive: -0.174.

For the sequence GAGCCUUUGGGAAUAAAAATT against PTGER1, the median seed-adjusted z-score was inactive: 0.383.

On to GUAUACACGUACAUCCAAATT against DYRK4, for which the median seed-adjusted z-score is inactive: -0.824.

On to GGUGAGAUGCUAUGUGGAATT against ADPRHL1, for which the median seed-adjusted z-score was inactive: 0.

Regarding CCUCUACGCUACAACAAGATT against EBI2, the median seed-adjusted z-score was inactive: -0.312.

Turning to UUGUAGAAAUGGAUACUGATT against ATR, the median seed-adjusted z-score was inactive: -0.217.

For the sequence GUACGGACCAUAAUAAUCATT against AUH, the median seed-adjusted z-score is inactive: 0.

Turning to CCCUCAAUAUGGUCAAGUATT against MYST1, the median seed-adjusted z-score is inactive: 0.

Take GAAAAACUCUGACUAAUGATT against B4GALT4: the median seed-adjusted z-score was inactive: -0.0479.

In the case of GCUCUGCUGUGGGCUACUATT against SLC31A2, the median seed-adjusted z-score was inactive: 0.401.

CGAUCAUUACCUCUCCAGATT against ARHGEF4: the median seed-adjusted z-score is inactive: 0.332.

With GAAUUCGACCAGUAUUUGATT against SOX7, the median seed-adjusted z-score is inactive: -0.387.

With GGGAUGAACUAGAUAGUAUTT against BRIP1, the median seed-adjusted z-score was inactive: 0.312.

As to GCAAUCAUUUGAAACUCCATT against CASP4, the median seed-adjusted z-score was inactive: -0.564.

In the case of CGAGUUCAUUCAUGACAUATT against SERPINF1, the median seed-adjusted z-score was inactive: -0.145.

As for GGCUGUACGAGUUAGCAAUTT against MYRIP, the median seed-adjusted z-score is inactive: 0.141.

For the sequence CAGCAAUUCUGGGAAGCGATT against GPR65, the median seed-adjusted z-score was inactive: -0.766.

For the sequence UGAAGUACUGGAUCCGUUATT against EBI3, the median seed-adjusted z-score is inactive: -0.206.

Take CAUCGGUACUUCAAGCGUATT against SLC7A1: the median seed-adjusted z-score is inactive: 0.445.

Turning to CAAUGACCCUAAUACGACATT against ST3GAL6, the median seed-adjusted z-score is inactive: -0.548.

Consider CCUUUUAUAUAUUCUCGGATT against GPR75, for which the median seed-adjusted z-score is inactive: 0.

On to GAAAAAUGGUUAACAUGUUTT against FOXD1, for which the median seed-adjusted z-score is inactive: -0.659.

In the case of GAUGCUUGCUAAUCGAACATT against SEC23B, the median seed-adjusted z-score was inactive: 0.48.

As for GGAUGACUCAGAGAUCUCATT against IPO4, the median seed-adjusted z-score was inactive: -0.0188.

On to GGACUGAACCUAAAGGCAUTT against KCNE1, for which the median seed-adjusted z-score was inactive: -0.347.

On to GGAGGUUCUAUCUACCAGATT against VDAC3, for which the median seed-adjusted z-score is inactive: 0.646.

For the sequence CGGCUGAUGUUCUCGAAUUTT against BRD3, the median seed-adjusted z-score is inactive: 0.633.

Take CGAUCGUCUUCUGAUCAAATT against DPYSL2: the median seed-adjusted z-score is inactive: -0.569.

For GGACGGACACGUUCAAGCATT against LRRC4B, the median seed-adjusted z-score was inactive: 0.288.

Turning to CAAGGACAACCACACAGAATT against FOXS1, the median seed-adjusted z-score was inactive: 0.

Take CGUGUUAGUGAAUAAAGUATT against ZNF771: the median seed-adjusted z-score was inactive: 0.108.

For CCCACGAUAUCAUCACCAATT against SERPINA1, the median seed-adjusted z-score was inactive: 0.00292.

Turning to GACGAAUUCCUAUAAAGCUTT against CBLL1, the median seed-adjusted z-score was inactive: -0.466.

As for UGCAGAAACUUAAUAGCCATT against CITED1, the median seed-adjusted z-score is inactive: 0.

For the sequence GGACAGUCAUUCAUUCCAATT against TENC1, the median seed-adjusted z-score is inactive: 0.892.
